Source: the supplement of paper PMC10849652
Some of the results follow.

By UniProt entry, the sequences of proteins in these tests, tags left out. Where a name states a change or a piece, a line headed by the entry shows the natural chain unless it says otherwise.
UniProt Q658Y4: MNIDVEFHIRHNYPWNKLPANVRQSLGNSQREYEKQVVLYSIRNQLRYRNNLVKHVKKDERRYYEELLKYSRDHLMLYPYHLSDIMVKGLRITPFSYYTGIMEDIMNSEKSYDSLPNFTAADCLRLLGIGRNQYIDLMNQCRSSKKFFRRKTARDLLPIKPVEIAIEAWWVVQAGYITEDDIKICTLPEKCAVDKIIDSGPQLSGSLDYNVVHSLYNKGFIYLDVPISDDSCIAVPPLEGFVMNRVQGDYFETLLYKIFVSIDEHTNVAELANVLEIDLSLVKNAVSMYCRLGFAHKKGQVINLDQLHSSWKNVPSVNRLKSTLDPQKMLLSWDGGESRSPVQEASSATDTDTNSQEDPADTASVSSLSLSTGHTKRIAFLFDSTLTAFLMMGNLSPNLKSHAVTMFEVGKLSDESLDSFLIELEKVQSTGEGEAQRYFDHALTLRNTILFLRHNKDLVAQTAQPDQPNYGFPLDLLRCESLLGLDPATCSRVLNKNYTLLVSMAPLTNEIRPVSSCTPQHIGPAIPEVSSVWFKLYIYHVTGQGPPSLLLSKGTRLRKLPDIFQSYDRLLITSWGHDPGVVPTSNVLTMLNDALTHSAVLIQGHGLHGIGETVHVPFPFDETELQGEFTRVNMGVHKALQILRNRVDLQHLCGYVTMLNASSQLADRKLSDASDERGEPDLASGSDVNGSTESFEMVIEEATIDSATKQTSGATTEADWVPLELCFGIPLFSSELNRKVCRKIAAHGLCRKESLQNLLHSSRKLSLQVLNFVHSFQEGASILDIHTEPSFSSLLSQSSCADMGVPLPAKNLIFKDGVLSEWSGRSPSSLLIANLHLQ
UniProt Q13643: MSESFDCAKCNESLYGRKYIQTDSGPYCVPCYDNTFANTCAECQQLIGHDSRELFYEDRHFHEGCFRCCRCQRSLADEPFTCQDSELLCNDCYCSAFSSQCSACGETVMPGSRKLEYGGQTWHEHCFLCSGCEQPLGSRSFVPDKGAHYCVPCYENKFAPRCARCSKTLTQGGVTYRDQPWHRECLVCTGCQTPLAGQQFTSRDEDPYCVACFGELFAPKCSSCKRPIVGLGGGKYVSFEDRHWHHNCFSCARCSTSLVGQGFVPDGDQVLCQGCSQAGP
UniProt Q14318: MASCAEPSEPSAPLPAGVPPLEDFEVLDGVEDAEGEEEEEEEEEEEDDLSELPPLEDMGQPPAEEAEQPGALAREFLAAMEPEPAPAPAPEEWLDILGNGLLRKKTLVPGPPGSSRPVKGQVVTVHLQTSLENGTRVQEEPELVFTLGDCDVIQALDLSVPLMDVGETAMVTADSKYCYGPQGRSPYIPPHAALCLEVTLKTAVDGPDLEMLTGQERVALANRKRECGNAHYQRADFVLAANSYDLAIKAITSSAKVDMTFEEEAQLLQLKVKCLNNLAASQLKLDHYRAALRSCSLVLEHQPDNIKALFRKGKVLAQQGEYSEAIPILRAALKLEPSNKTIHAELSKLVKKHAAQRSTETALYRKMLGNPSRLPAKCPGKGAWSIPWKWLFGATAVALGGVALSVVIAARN
UniProt O15287: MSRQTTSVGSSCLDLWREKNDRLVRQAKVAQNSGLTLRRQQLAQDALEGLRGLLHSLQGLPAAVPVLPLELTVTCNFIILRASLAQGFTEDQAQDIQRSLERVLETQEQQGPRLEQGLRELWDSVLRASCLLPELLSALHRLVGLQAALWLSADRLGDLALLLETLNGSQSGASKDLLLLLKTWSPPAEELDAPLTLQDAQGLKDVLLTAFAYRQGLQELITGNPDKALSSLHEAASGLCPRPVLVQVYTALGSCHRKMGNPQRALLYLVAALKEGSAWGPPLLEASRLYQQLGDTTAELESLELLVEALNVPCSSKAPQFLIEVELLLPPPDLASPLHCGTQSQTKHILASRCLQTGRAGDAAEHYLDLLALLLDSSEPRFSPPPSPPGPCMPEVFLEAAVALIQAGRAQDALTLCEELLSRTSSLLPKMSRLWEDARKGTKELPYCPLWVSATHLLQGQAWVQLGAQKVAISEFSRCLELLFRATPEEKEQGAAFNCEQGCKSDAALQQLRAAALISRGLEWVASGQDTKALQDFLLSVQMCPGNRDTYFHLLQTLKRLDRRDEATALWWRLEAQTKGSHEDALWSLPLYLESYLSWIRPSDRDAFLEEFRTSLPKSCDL
UniProt Q53R41: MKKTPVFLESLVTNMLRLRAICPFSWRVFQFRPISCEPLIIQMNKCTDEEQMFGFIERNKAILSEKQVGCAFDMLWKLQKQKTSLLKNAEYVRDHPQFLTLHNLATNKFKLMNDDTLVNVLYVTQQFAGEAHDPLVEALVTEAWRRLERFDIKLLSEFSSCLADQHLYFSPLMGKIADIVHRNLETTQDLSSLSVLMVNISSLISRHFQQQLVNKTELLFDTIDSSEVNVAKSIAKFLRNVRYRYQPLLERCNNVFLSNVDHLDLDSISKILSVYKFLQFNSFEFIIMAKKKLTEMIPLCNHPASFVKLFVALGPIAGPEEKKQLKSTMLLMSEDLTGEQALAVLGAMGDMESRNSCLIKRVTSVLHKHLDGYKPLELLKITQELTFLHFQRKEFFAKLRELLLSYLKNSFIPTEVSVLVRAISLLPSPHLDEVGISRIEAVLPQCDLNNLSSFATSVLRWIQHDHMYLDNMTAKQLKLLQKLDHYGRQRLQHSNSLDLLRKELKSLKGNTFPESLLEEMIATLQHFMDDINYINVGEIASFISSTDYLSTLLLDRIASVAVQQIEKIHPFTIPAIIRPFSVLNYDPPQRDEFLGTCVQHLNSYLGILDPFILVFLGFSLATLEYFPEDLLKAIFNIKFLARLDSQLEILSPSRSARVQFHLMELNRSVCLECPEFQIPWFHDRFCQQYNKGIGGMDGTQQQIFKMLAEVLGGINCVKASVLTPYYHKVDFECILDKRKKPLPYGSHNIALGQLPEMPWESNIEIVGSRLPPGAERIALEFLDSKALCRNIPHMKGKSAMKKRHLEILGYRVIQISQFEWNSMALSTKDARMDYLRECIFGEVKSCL
UniProt P0C2W1: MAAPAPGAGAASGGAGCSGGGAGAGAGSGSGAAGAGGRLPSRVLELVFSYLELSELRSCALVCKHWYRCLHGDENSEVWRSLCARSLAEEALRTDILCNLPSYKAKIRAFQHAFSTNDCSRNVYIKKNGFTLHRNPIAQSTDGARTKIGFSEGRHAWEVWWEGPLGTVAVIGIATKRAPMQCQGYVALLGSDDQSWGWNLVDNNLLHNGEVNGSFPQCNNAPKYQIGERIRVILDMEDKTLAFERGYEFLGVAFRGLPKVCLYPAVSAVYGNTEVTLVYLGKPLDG
UniProt Q6UN15: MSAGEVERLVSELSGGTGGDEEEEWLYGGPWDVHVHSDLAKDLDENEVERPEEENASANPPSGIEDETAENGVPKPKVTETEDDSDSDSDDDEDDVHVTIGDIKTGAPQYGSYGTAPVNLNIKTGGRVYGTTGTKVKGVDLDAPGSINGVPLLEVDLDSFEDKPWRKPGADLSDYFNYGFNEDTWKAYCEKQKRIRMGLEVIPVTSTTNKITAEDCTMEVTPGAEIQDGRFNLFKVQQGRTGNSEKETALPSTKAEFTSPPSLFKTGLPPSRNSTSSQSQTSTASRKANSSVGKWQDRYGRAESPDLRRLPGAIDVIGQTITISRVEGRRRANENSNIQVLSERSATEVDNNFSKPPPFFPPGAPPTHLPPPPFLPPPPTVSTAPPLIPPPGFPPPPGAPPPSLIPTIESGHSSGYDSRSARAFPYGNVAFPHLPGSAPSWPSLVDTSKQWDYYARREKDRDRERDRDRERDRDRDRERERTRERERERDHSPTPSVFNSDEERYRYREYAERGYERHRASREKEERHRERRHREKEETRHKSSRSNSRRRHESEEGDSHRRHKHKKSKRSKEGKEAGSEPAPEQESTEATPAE
UniProt Q9UKT4: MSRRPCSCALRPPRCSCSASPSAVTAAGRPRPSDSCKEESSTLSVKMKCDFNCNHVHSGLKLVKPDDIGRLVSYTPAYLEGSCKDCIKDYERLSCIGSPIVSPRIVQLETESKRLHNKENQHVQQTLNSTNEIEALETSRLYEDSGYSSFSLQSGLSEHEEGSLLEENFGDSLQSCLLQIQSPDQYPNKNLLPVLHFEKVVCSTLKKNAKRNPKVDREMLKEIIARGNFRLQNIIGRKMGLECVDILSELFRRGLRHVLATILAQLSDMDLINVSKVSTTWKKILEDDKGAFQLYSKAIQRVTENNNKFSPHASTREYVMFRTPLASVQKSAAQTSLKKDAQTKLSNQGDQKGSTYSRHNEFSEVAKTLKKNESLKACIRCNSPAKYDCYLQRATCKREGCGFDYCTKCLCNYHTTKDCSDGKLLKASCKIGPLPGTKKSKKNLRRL
UniProt O94887: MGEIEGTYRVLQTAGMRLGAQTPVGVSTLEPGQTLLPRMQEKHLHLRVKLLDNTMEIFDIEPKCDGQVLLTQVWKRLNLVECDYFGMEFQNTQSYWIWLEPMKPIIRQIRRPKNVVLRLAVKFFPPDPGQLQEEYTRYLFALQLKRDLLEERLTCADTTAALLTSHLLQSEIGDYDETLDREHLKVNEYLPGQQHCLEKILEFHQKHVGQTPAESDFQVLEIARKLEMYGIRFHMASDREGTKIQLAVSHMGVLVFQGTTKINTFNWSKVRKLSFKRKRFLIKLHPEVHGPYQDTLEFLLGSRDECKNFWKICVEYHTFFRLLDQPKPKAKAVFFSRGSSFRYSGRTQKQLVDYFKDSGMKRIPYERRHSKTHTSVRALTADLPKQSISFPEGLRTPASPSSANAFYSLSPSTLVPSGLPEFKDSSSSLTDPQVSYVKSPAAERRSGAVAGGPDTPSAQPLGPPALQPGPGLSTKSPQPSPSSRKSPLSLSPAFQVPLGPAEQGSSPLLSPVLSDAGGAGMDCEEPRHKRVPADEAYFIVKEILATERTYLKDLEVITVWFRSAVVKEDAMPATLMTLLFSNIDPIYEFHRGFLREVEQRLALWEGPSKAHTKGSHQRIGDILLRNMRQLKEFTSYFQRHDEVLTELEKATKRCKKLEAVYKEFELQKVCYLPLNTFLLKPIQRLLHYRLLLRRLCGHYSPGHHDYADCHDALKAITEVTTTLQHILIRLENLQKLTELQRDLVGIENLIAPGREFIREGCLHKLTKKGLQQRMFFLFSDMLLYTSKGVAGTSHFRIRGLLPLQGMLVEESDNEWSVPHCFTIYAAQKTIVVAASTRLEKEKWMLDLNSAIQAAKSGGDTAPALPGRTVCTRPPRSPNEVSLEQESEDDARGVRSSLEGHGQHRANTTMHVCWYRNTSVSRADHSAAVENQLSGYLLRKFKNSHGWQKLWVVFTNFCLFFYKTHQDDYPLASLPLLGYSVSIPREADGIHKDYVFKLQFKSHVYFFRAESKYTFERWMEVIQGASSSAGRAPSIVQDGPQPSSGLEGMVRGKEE
UniProt Q9P0K8: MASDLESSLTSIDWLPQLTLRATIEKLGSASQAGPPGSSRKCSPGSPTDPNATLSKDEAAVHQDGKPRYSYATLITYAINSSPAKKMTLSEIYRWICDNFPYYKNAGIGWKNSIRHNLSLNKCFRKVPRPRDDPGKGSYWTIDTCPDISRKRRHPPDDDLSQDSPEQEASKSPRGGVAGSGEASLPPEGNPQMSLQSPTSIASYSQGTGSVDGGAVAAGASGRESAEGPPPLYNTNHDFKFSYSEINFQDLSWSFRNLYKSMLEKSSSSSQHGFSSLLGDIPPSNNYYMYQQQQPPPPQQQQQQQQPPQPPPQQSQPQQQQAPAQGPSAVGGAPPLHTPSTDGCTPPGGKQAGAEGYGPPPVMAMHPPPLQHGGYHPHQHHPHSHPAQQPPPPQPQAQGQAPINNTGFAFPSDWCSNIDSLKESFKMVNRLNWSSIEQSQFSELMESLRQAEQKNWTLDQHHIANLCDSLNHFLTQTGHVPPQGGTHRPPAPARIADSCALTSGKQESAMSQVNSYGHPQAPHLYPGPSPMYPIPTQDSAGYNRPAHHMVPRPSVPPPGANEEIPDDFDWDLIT
UniProt Q9NSD9: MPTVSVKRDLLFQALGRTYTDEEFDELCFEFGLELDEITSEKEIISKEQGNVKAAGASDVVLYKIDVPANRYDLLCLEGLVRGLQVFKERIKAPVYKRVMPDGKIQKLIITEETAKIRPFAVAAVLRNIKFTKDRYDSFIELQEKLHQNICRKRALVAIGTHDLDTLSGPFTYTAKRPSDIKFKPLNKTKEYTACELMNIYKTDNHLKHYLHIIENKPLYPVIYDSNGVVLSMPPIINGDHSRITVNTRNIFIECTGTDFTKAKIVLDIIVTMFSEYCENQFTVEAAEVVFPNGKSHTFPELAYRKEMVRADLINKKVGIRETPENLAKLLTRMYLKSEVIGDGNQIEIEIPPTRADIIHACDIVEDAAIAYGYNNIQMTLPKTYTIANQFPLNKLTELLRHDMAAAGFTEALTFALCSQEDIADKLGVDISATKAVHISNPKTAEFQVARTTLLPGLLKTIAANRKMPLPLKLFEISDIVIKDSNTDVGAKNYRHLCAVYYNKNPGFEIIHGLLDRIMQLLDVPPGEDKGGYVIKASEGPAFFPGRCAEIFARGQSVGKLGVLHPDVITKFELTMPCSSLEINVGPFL

Experiments:
Test in all cases: log2 fold change, soluble protein after heating vs DMSO (PISA); higher = thermal stabilisation; K562 lysate, 10 uM; active = over 0.2 and 3.5 SD of the protein, either way, in both replicates (recomputed)
nilotinib = compound: Cc1cn(-c2cc(NC(=O)c3ccc(C)c(Nc4nccc(-c5cccnc5)n4)c3)cc(C(F)(F)F)c2)cn1 [nilotinib]
Outline: (§1)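 K562 pellets were dounce-homogenised in PBS pH 7.4 containing 1 mM MgCl2, and the crude extract, at 1 mg/mL protein, was exposed to 10 μM compound for 30 min. Aliquots were heated for 3 min across 48°C-58°C, pooled, brought to 0.5% NP-40 at 4°C and spun at 21,000xg for 90 min, with the supernatant taken as soluble protein. TMTpro 16plex LC-MS/MS with equalised channel sums quantified that protein. Values are log-two fold changes in thermal stability relative to solvent controls, taken from duplicates.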

[1] = compound: Cc1nc(Nc2n[nH]c3c2CN(C(=O)N[C@H](CN(C)C)c2ccccc2)C3(C)C)c2sccc2n1
Outline: as §1

dasatinib = compound: Cc1nc(Nc2ncc(C(=O)Nc3c(C)cccc3Cl)s2)cc(N2CCN(CCO)CC2)n1 [dasatinib]
Outline: as §1

[2] = compound: Cc1ncc(-c2ccnc(Nc3ccc(S(C)(=O)=O)cc3)n2)n1C(C)C
Outline: as §1

[3] = compound: Cn1cc(-c2ccc3c(c2)CCN3C(=O)Cc2cccc(C(F)(F)F)c2)c2c(N)ncnc21
Outline: as §1

quisinostat = compound: Cn1cc(CNCC2CCN(c3ncc(C(=O)NO)cn3)CC2)c2ccccc21 [quisinostat]
Outline: as §1

tipifarnib = compound: Cn1cncc1[C@@](N)(c1ccc(Cl)cc1)c1ccc2c(c1)c(-c1cccc(Cl)c1)cc(=O)n2C [tipifarnib]
Outline: as §1

[4] = compound: NC(=O)Nc1cc(-c2cccc(F)c2)sc1C(=O)N[C@H]1CCCNC1
Outline: as §1

[5] = compound: NC(=O)c1cnc(N[C@@H]2CCCC[C@@H]2N)nc1Nc1cccc(-n2nccn2)c1
Outline: as §1

[6] = compound: NC1(c2ccc(-c3nc4ccn5c(=O)[nH]nc5c4cc3-c3ccccc3)cc2)CCC1
Outline: as §1

Target	log2 fold change (nilotinib)	log2 fold change [1]	log2 fold change (dasatinib)	log2 fold change [2]	log2 fold change [3]	log2 fold change (quisinostat)	log2 fold change (tipifarnib)	log2 fold change [4]	log2 fold change [5]	log2 fold change [6]
FAM91A1 (UniProt Q658Y4)	inactive: 0.081	inactive: 0.094	inactive: -0.026	inactive: 0.074	inactive: 0.005	inactive: -0.01	inactive: -0.095	inactive: -0.001	inactive: 0.043	inactive: -0.001
FBXO38 (UniProt Q6PIJ6)	inactive: 0.157	inactive: -0.203	inactive: -0.03	inactive: -0.125	inactive: -0.069	inactive: -0.028	inactive: -0.071	inactive: 0.026	inactive: -0.031	inactive: 0.012
FAM89A (UniProt Q96GI7)	inactive: 0.009	inactive: -0.132	inactive: -0.024	inactive: -0.005	inactive: -0.019	inactive: -0.02	inactive: 0.025	inactive: 0.033	inactive: 0.116	inactive: 0.044
FERMT2 isoform 3 (UniProt Q96AC1)	inactive: 0.124	inactive: -0.044	inactive: 0.118	inactive: 0.085	inactive: -0.005	inactive: -0.034	inactive: 0.085	inactive: 0.005	inactive: 0.02	inactive: 0.031
FHL3 (UniProt Q13643)	inactive: 0.047	inactive: 0.038	inactive: -0.126	inactive: 0.046	inactive: -0.029	inactive: 0.12	inactive: 0.026	inactive: -0.083	inactive: -0.009	inactive: -0.001
FH (UniProt P07954)	inactive: -0.009	inactive: -0.019	inactive: -0.011	inactive: -0.001	inactive: 0.008	inactive: 0.031	inactive: 0.038	inactive: 0	inactive: -0.001	inactive: 0.01
FKBP8 isoform 2 (UniProt Q14318)	inactive: -0.019	inactive: -0.055	inactive: -0.056	inactive: 0.014	inactive: 0.011	inactive: -0.21	inactive: -0.005	inactive: 0.067	inactive: 0.02	inactive: 0.005
FBXL18 isoform 4 (UniProt Q96ME1)	inactive: 0.038	inactive: -0.044	inactive: -0.004	inactive: 0.033	inactive: 0.013	inactive: 0.009	inactive: -0.051	inactive: 0.026	inactive: 0.012	inactive: 0.01
FANCG (UniProt O15287)	inactive: -0.172	inactive: 0.101		inactive: 0.013		inactive: -0.094	inactive: 0.083	inactive: 0.052		
FASTKD1 (UniProt Q53R41)	inactive: -0.08	inactive: 0.06	inactive: -0.035	inactive: 0.016	inactive: 0.031	inactive: -0.166	inactive: -0.044	inactive: 0.018		inactive: 0.011
FITM2 (UniProt Q8N6M3)	inactive: -0.272	inactive: -0.255		inactive: 0.39			inactive: 0.211		inactive: 0.055	
FCHSD2 (UniProt O94868)	inactive: 0.006	inactive: 0.048	inactive: -0.083	inactive: 0.075	inactive: -0.038		inactive: -0.066		inactive: -0.119	
FBLN1 (UniProt P23142)	inactive: 0.05	inactive: -0.13		inactive: 0.055		inactive: 0.01	inactive: -0.132	inactive: -0.13		
FBXO45 (UniProt P0C2W1)	inactive: 0.025	inactive: 0.028		inactive: -0.088		inactive: -0.006	inactive: -0.011	inactive: 0.008	inactive: 0.147	inactive: -0.002
FIP1L1 isoform 3 (UniProt Q6UN15)	inactive: -0.257	inactive: -0.093		inactive: 0.308		inactive: 0.012	inactive: -0.029	inactive: -0.002	inactive: 0.239	inactive: 0.139
FN1 (UniProt P02751)	inactive: 0.014	inactive: 0.036	inactive: 0.034	inactive: 0.026	inactive: -0.008	inactive: -0.018	inactive: -0.041	inactive: 0	inactive: -0.023	inactive: 0.01

Target	log2 fold change (nilotinib)	log2 fold change [1]	log2 fold change (dasatinib)	log2 fold change [2]	log2 fold change [3]	log2 fold change (quisinostat)	log2 fold change (tipifarnib)	log2 fold change [4]	log2 fold change [5]	log2 fold change [6]
FEN1 (UniProt P39748)	inactive: 0.037	inactive: -0.041		inactive: 0.003	inactive: 0.019	inactive: -0.042	inactive: 0.02	inactive: 0.045	inactive: -0.035	inactive: -0.002
FLOT2 (UniProt Q14254)	inactive: 0.04	inactive: -0.054	inactive: -0.001	inactive: 0.032	inactive: 0.009	inactive: 0.02	inactive: 0.003	inactive: 0.014	inactive: 0.025	inactive: 0.007
FAT2 (UniProt Q9NYQ8)	inactive: -0.086	inactive: 0.086		inactive: 0.014		active: -0.978	inactive: -0.028	inactive: 0.36	inactive: 0.025	inactive: -0.087
FNDC3A (UniProt Q9Y2H6)	inactive: -0.057	inactive: -0.125		inactive: -0.293		inactive: -0.247	inactive: -0.064	inactive: 0.059		inactive: -0.03
FBRSL1, A0A3B3IRR3	inactive: 0.034	inactive: 0.022	inactive: 0.01	inactive: 0.013	inactive: -0.042	inactive: 0.031	inactive: -0.073	inactive: 0.029		inactive: 0.066
FBXO5 (UniProt Q9UKT4)	inactive: -0.047	inactive: -0.002	inactive: 0.056	inactive: 0.008	inactive: 0.022	inactive: -0.039	inactive: -0.026	inactive: 0	inactive: 0.147	inactive: -0.073
FARP2 (UniProt O94887)	inactive: -0.046	inactive: -0.102	inactive: -0.033	inactive: -0.076	inactive: -0.092	inactive: 0.022	inactive: -0.192	inactive: -0.038	inactive: -0.189	inactive: -0.035
FER (UniProt P16591)	inactive: -0.123	inactive: 0.331	inactive: 0.127	inactive: 0	inactive: 0.05	inactive: -0.166	inactive: -0.093		inactive: 0.26	inactive: -0.006
FCGR2A (UniProt P12318)	inactive: 0.035	inactive: -0.044	inactive: -0.005	inactive: 0.015	inactive: 0.033	inactive: -0.043	inactive: 0.035	inactive: -0.002	inactive: 0.006	inactive: 0.038
FMNL2 isoform 3 (UniProt Q96PY5)	inactive: -0.1	inactive: -0.087	inactive: 0.101	inactive: -0.018	inactive: -0.028	inactive: -0.1	inactive: -0.012	inactive: -0.047	inactive: 0.002	inactive: -0.021
FBH1 isoform 2 (UniProt Q8NFZ0)	inactive: 0.249	inactive: -0.049		inactive: 0.014		inactive: -0.136	inactive: -0.153	inactive: -0.005		
FOXJ2 (UniProt Q9P0K8)	inactive: 0.033	inactive: 0.29	inactive: 0.056	inactive: 0.077	inactive: 0.018		inactive: -0.293			inactive: -0.111
FARSB (UniProt Q9NSD9)	inactive: -0.019	inactive: -0.005	inactive: -0.019	inactive: 0.006	inactive: 0.032	inactive: -0.001	inactive: 0.02	inactive: 0.027	inactive: 0.002	inactive: -0.014
FN3KRP (UniProt Q9HA64)	inactive: -0.021	inactive: 0.014	inactive: -0.031	inactive: 0.06	inactive: -0.002	inactive: -0.063	inactive: 0.019	inactive: 0.016	inactive: -0.028	inactive: 0.008
FAM86B2 (UniProt P0C5J1)	inactive: -0.043	inactive: 0.002		inactive: 0.21			inactive: 0.089		inactive: -0.091	
FLVCR1 (UniProt Q9Y5Y0)	inactive: -0.085	inactive: 0.003	inactive: 0.279	inactive: 0.092	inactive: 0.062	inactive: -0.067	inactive: 0.027	inactive: 0.068	inactive: -0.025	inactive: 0.001

Looked up one by one from the list above (two):
Target	log2 fold change (nilotinib)	log2 fold change [1]	log2 fold change (dasatinib)	log2 fold change [2]	log2 fold change [3]	log2 fold change (quisinostat)	log2 fold change (tipifarnib)	log2 fold change [4]	log2 fold change [5]	log2 fold change [6]
FLVCR1 (UniProt Q9Y5Y0)	inactive: -0.085	inactive: 0.003	inactive: 0.279	inactive: 0.092	inactive: 0.062	inactive: -0.067	inactive: 0.027	inactive: 0.068	inactive: -0.025	inactive: 0.001
FARSB (UniProt Q9NSD9)	inactive: -0.019	inactive: -0.005	inactive: -0.019	inactive: 0.006	inactive: 0.032	inactive: -0.001	inactive: 0.02	inactive: 0.027	inactive: 0.002	inactive: -0.014
